Test results reported in the supplement of paper PMC7238544.
Where a name gives a salt, the structure may show the parent alone. ± gives the standard deviation of the averaged measurements. The list shows a part of the results. The data scatter; read single values as rough.

What follows are molecules tested on hAMSC donor 1 (assay: transgenic luciferase activity (RLU/mg protein) fold change vs vehicle control (ratio); hAMSC are human adipose-derived mesenchymal stem cells given an EGFP-luciferase plasmid by lipofection; higher = more transgene expression). Conditions: priming compound concentration 1.7 µM.

Question: With `COC(=O)N1CCN(C(=O)Cc2ccc(Cl)c(Cl)c2)C(CN2CCCC2)C1` (stereo unspecified) as the molecule, how does the transgenic luciferase activity read?
Answer: 0.794 ± 0.3

Question: `c1ccc(Cn2ccnc2)cc1` [Benzylimidazole] was tested. Which transgenic luciferase activity did it give?
Answer: 2.6 ± 0.15

Question: For `O=C1CN=C(c2ccccc2)c2cc([N+](=O)[O-])ccc2N1` [Nitrazepam], which transgenic luciferase activity is on record?
Answer: 0.726 ± 0.11

Question: Which transgenic luciferase activity does the source give for `C[C@]12CC[C@H](O)CC1=CC[C@@H]1[C@@H]2CC[C@]2(C)C(=O)CC[C@@H]12` [Dehydroepiandrosterone] here?
Answer: 1.17 ± 0.8

Question: `O=C1CC[C@@]2(O)[C@H]3Cc4ccc(O)c5c4[C@@]2(CCN3CC2CC2)[C@H]1O5` [Naltrexone hydrochloride] was tested. Which transgenic luciferase activity did it give?
Answer: 0.25 ± 0.03

Question: How did the transgenic luciferase activity turn out when `N=C(NCc1ccc(Cl)cc1)SCCCc1c[nH]cn1` [Clobenpropit] was run?
Answer: 0.6 ± 0.35

Question: How did the transgenic luciferase activity turn out when `C=C(C)[C@@H]1[C@H]2OC(=O)[C@@H]1[C@]1(O)C[C@H]3O[C@]34C(=O)O[C@H]2[C@]14C.CC(C)(O)[C@@H]1[C@H]2OC(=O)[C@@H]1[C@]1(O)C[C@H]3O[C@]34C(=O)O[C@H]2[C@]14C` [Picrotin - Picrotoxinin] was run?
Answer: 1.54 ± 0.62

Question: `C[C@]12Cc3c[nH]nc3C[C@@H]1CC[C@@H]1[C@@H]2CC[C@@]2(C)[C@H]1CC[C@]2(C)O` [Stanozolol] was tested. Which transgenic luciferase activity did it give?
Answer: 1.06 ± 0.25

Question: For `CN[C@@H]1C[C@@H](c2ccc(Cl)c(Cl)c2)c2ccccc21` [Indatraline hydrochloride], which transgenic luciferase activity is on record?
Answer: 1.19 ± 0.54

Question: How did the transgenic luciferase activity turn out when `C#CCN(C)[C@H](C)Cc1ccccc1` [Selegiline hydrochloride] was run?
Answer: 1.34 ± 0.86

Question: With `C[C@]12CC[C@H]3[C@@H](CCC4=CC(=O)CC[C@@]43C)[C@@H]1CC[C@@H]2O` [Testosterone] as the molecule, how does the transgenic luciferase activity read?
Answer: 1.46 ± 0.76
